Measurements reported in PubChem BioAssay AID1259322 (Peter MacCallum Cancer Centre, 2017).
This is a random part of 208 deposited reagents. In the full data, 72 (35%) got an active call. 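Four separate siRNAs per kinase gene, 52 genes in all; PAR2 agonist unnamed, with its dose and timing unknown.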 Not stated in the record: the amount of reagent, the time to read-out.

- Test: 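Kinases required for PAR2 to open the TRPV4 channel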 (follow-up of hits)
- System: human HEK293 cells with stable inducible TRPV4
- Reagent: single siRNA against human genes
- Treatment: PAR2 activation; agonist identity, dose and timing not stated
- Measurement: 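Fura-2 imaging of cytosolic calcium over time, first peak marking PAR2 and later plateau marking TRPV4 opening; both relative to mock on each plate, mean of two plates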
- Reading the numbers: TRPV4 plateau calcium, % of mock: higher = stronger PAR2-dependent TRPV4 calcium entry; PAR2 peak calcium, % of mock: higher = stronger direct PAR2 calcium response
- Hit rule: 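Scored active if TRPV4 plateau drops under 90% of mock while PAR2 peak is kept above 79% of mock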

{"gene":"KSR1","PubChem SID":"SID336446707","TRPV4 plateau calcium, % of mock":86.1,"PAR2 peak calcium, % of mock":96,"outcome":"active"}
{"gene":"KSR1","PubChem SID":"SID336446708","TRPV4 plateau calcium, % of mock":95.1,"PAR2 peak calcium, % of mock":106,"outcome":"inactive"}
{"gene":"KSR1","PubChem SID":"SID336446709","TRPV4 plateau calcium, % of mock":75.9,"PAR2 peak calcium, % of mock":60.1,"outcome":"inactive"}
{"gene":"KSR1","PubChem SID":"SID336446710","TRPV4 plateau calcium, % of mock":81.2,"PAR2 peak calcium, % of mock":76.7,"outcome":"inactive"}
{"gene":"PDK3","PubChem SID":"SID336446747","TRPV4 plateau calcium, % of mock":94.5,"PAR2 peak calcium, % of mock":95.3,"outcome":"inactive"}
{"gene":"PDK3","PubChem SID":"SID336446748","TRPV4 plateau calcium, % of mock":79.9,"PAR2 peak calcium, % of mock":82.7,"outcome":"active"}
{"gene":"PDK3","PubChem SID":"SID336446749","TRPV4 plateau calcium, % of mock":89.8,"PAR2 peak calcium, % of mock":97.9,"outcome":"active"}
{"gene":"PDK3","PubChem SID":"SID336446750","TRPV4 plateau calcium, % of mock":99.6,"PAR2 peak calcium, % of mock":99.3,"outcome":"inactive"}
{"gene":"FYN","PubChem SID":"SID336446867","TRPV4 plateau calcium, % of mock":93.8,"PAR2 peak calcium, % of mock":103,"outcome":"inactive"}
{"gene":"FYN","PubChem SID":"SID336446868","TRPV4 plateau calcium, % of mock":78.5,"PAR2 peak calcium, % of mock":92.7,"outcome":"active"}
{"gene":"FYN","PubChem SID":"SID336446869","TRPV4 plateau calcium, % of mock":70.6,"PAR2 peak calcium, % of mock":75.5,"outcome":"inactive"}
{"gene":"FYN","PubChem SID":"SID336446870","TRPV4 plateau calcium, % of mock":75.6,"PAR2 peak calcium, % of mock":70.2,"outcome":"inactive"}

The list goes on, starting with the last 2 of the part before.
{"gene":"FYN","PubChem SID":"SID336446869","TRPV4 plateau calcium, % of mock":70.6,"PAR2 peak calcium, % of mock":75.5,"outcome":"inactive"}
{"gene":"FYN","PubChem SID":"SID336446870","TRPV4 plateau calcium, % of mock":75.6,"PAR2 peak calcium, % of mock":70.2,"outcome":"inactive"}
{"gene":"PHKG2","PubChem SID":"SID336446723","TRPV4 plateau calcium, % of mock":88.5,"PAR2 peak calcium, % of mock":93.3,"outcome":"active"}
{"gene":"PHKG2","PubChem SID":"SID336446724","TRPV4 plateau calcium, % of mock":111,"PAR2 peak calcium, % of mock":103,"outcome":"inactive"}
{"gene":"PHKG2","PubChem SID":"SID336446725","TRPV4 plateau calcium, % of mock":85.1,"PAR2 peak calcium, % of mock":87,"outcome":"active"}
{"gene":"PHKG2","PubChem SID":"SID336446726","TRPV4 plateau calcium, % of mock":107,"PAR2 peak calcium, % of mock":98.4,"outcome":"inactive"}
{"gene":"PTK2","PubChem SID":"SID336446679","TRPV4 plateau calcium, % of mock":105,"PAR2 peak calcium, % of mock":95.5,"outcome":"inactive"}
{"gene":"PTK2","PubChem SID":"SID336446680","TRPV4 plateau calcium, % of mock":95.6,"PAR2 peak calcium, % of mock":99.5,"outcome":"inactive"}
{"gene":"PTK2","PubChem SID":"SID336446681","TRPV4 plateau calcium, % of mock":84.6,"PAR2 peak calcium, % of mock":85.1,"outcome":"active"}
{"gene":"PTK2","PubChem SID":"SID336446682","TRPV4 plateau calcium, % of mock":106,"PAR2 peak calcium, % of mock":96.7,"outcome":"inactive"}
{"gene":"FLT4","PubChem SID":"SID336446763","TRPV4 plateau calcium, % of mock":100,"PAR2 peak calcium, % of mock":96.4,"outcome":"inactive"}
{"gene":"FLT4","PubChem SID":"SID336446764","TRPV4 plateau calcium, % of mock":83.5,"PAR2 peak calcium, % of mock":73.8,"outcome":"inactive"}
{"gene":"FLT4","PubChem SID":"SID336446765","TRPV4 plateau calcium, % of mock":99.2,"PAR2 peak calcium, % of mock":103,"outcome":"inactive"}
{"gene":"FLT4","PubChem SID":"SID336446766","TRPV4 plateau calcium, % of mock":71.3,"PAR2 peak calcium, % of mock":59.3,"outcome":"inactive"}
{"gene":"PLK4","PubChem SID":"SID336446739","TRPV4 plateau calcium, % of mock":98.7,"PAR2 peak calcium, % of mock":94.4,"outcome":"inactive"}
{"gene":"PLK4","PubChem SID":"SID336446740","TRPV4 plateau calcium, % of mock":121,"PAR2 peak calcium, % of mock":121,"outcome":"inactive"}
{"gene":"PLK4","PubChem SID":"SID336446741","TRPV4 plateau calcium, % of mock":106,"PAR2 peak calcium, % of mock":114,"outcome":"inactive"}
{"gene":"PLK4","PubChem SID":"SID336446742","TRPV4 plateau calcium, % of mock":83.6,"PAR2 peak calcium, % of mock":88.3,"outcome":"active"}
